Reference: publication PMC2680618
No constants are given. Whether binding was seen depends on the method and setting. Binding seen in cells or lysates may run through a third protein. Some entries that bind do so weakly or less than the wild type. For some assays here: Sequences can lack the tags named with a protein.

T1: HA-CDC6 (UniProt O89033)
T1 sequence: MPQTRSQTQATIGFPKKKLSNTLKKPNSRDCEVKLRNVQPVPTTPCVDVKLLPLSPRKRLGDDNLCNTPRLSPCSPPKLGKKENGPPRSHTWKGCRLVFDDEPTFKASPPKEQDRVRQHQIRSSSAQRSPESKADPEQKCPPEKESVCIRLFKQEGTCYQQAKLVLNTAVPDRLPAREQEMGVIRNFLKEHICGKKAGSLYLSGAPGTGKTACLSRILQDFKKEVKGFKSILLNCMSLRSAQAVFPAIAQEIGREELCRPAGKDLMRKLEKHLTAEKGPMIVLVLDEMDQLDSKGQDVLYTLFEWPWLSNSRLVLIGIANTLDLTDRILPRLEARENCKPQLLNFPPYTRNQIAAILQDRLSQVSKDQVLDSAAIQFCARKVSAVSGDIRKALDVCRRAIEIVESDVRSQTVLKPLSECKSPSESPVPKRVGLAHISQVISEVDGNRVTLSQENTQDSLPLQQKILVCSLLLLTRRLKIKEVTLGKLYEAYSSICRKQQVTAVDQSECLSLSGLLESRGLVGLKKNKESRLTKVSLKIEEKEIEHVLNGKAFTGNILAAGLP

T2: BMI1 (endogenous, mouse thymocytes) (mouse (endogenous in thymocytes)) (UniProt P25916)
T2 sequence: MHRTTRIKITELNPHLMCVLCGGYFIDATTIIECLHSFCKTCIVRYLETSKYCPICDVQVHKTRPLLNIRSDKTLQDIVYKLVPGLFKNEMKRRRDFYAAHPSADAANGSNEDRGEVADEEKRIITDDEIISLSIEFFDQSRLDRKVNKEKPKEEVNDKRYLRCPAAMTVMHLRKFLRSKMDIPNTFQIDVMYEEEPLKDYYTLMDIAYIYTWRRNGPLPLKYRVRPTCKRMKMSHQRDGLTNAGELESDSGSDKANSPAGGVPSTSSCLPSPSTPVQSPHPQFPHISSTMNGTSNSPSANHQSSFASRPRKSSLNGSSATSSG

B1: BMI1 (endogenous, NIH3T3 cells) (protein, UniProt P25916 1-324)
chain: MHRTTRIKITELNPHLMCVLCGGYFIDATTIIECLHSFCKTCIVRYLETSKYCPICDVQVHKTRPLLNIRSDKTLQDIVYKLVPGLFKNEMKRRRDFYAAHPSADAANGSNEDRGEVADEEKRIITDDEIISLSIEFFDQSRLDRKVNKEKPKEEVNDKRYLRCPAAMTVMHLRKFLRSKMDIPNTFQIDVMYEEEPLKDYYTLMDIAYIYTWRRNGPLPLKYRVRPTCKRMKMSHQRDGLTNAGELESDSGSDKANSPAGGVPSTSSCLPSPSTPVQSPHPQFPHISSTMNGTSNSPSANHQSSFASRPRKSSLNGSSATSSG
B2: CDC6 (endogenous, mouse thymocytes) (protein, UniProt O89033 1-562)
chain: MPQTRSQTQATIGFPKKKLSNTLKKPNSRDCEVKLRNVQPVPTTPCVDVKLLPLSPRKRLGDDNLCNTPRLSPCSPPKLGKKENGPPRSHTWKGCRLVFDDEPTFKASPPKEQDRVRQHQIRSSSAQRSPESKADPEQKCPPEKESVCIRLFKQEGTCYQQAKLVLNTAVPDRLPAREQEMGVIRNFLKEHICGKKAGSLYLSGAPGTGKTACLSRILQDFKKEVKGFKSILLNCMSLRSAQAVFPAIAQEIGREELCRPAGKDLMRKLEKHLTAEKGPMIVLVLDEMDQLDSKGQDVLYTLFEWPWLSNSRLVLIGIANTLDLTDRILPRLEARENCKPQLLNFPPYTRNQIAAILQDRLSQVSKDQVLDSAAIQFCARKVSAVSGDIRKALDVCRRAIEIVESDVRSQTVLKPLSECKSPSESPVPKRVGLAHISQVISEVDGNRVTLSQENTQDSLPLQQKILVCSLLLLTRRLKIKEVTLGKLYEAYSSICRKQQVTAVDQSECLSLSGLLESRGLVGLKKNKESRLTKVSLKIEEKEIEHVLNGKAFTGNILAAGLP

Columns and labels:
HA-CDC6 = target: T1, HA-CDC6; assay: co-IP; NIH3T3 cells transiently transfected with pCG-HAcdc6, 72 h; Nuclear Complex Co-IP Kit (Active Motif); precipitated with mouse anti-HA, blotted with a BMI1 antibody
[1] = target: T2, BMI1 (endogenous, mouse thymocytes) (mouse (endogenous in thymocytes)); assay: co-IP; wild type non-transfected mouse thymocytes; Nuclear Complex Co-IP Kit (Active Motif); precipitated with mouse anti-BMI1, blotted with a CDC6 antibody

| Binder | binding (HA-CDC6) | binding [1] |
| --- | --- | --- |
| B1 | binds | – |
| B2 | – | binds |
